Several values for one entry are separate records, joined by “and”; a condition that tells them apart may be missing. Identical values can stand only once. Screen size: about 300,000 compounds; about 5,400 (1.8%) were called active. The inconclusive results got no clear call from the source; some entries with a clear call stand among them for comparison. The call rests on the fitted dose curve; tested in HEK293 cells. A potency beside an inconclusive call is a rough fit, not a confirmed value.
experiment: qHTS for inhibitors of binding or entry into cells for Marburg Virus; settings: Marburg virus pseudotyped entry inhibition, cell reporter; series mostly up to 37.8 µM
Potency means the concentration at half of the fitted maximal effect.

Compound	Potency
CN(C)C(=O)CSc1nnc(-c2cc(-c3cccs3)nc3ccccc23)o1	inconclusive: 0.282 µM [inhibitor, full curve, poor fit]
C(#CCN1CCOCC1)COCCOC(c1ccccc1)c1ccccc1	inconclusive: 29.1 µM [inhibitor, single point]
O=C(NCc1ccncc1)c1ccc2nc(Cc3ccccc3F)oc2c1	inactive
CN(C)c1ccc(CNC(=O)c2ccc(Cn3c(SCc4ccccc4)nc4cccnc43)cc2)cc1	inactive
NC(=O)c1ccccc1N/C=C/C(=O)c1ccco1	inactive
CC(=O)Nc1ccc(S(=O)(=O)NCCc2ccccn2)cc1	inactive
Cn1cc(C(=O)c2ccc(Cl)cc2Cl)cc1C(=O)N/N=C(\N)COc1cccc(C(F)(F)F)c1	inconclusive: 35.5 µM [inhibitor, single point]
Cc1ccc(NC2CCCN(C(=O)CSc3ccncc3)C2)cc1C (stereo not drawn)	inactive
Cc1cc(C)nc(Nc2ccc(Br)cc2C(=O)O)n1	inconclusive: 4.47 µM [activator, single point]
Cc1cc(C(C)(C)C)cc(C)c1N	inconclusive: 15.8 µM [activator, single point]
O=C(NN=C1CCCC1)c1cccc(Br)c1	inconclusive: 35.5 µM [inhibitor, single point]
Cc1ccnc(NC(=O)CNC(=O)COc2ccccc2)c1	inactive
Nc1c(Cl)ncnc1N1CCCC1	inactive
CN(C)c1ccc(C=NNC(=O)c2cccc3ccccc23)c(Cl)c1	inactive
CCCCOc1ccc(N(CC(=O)NC2CCCCC2)C(=O)c2snc(C(N)=O)c2N)cc1	inconclusive: 25.1 µM [inhibitor, single point]
Cc1ccc2[nH]c(O)c(N=Nc3ccccc3[N+](=O)[O-])c2c1	inconclusive: 1.26 µM [activator, single point]
COc1ccc(-c2noc(-c3ccc(Br)o3)n2)cc1OC	inactive
CCCN=C(N)/C(C(=O)OCC)=C(\O)c1ccc(OC)cc1	inactive
CCOc1ccc(-c2nc3c(c(SCC(=O)Nc4ccccc4C)n2)Cc2ccccc2O3)cc1	inactive
CCOC(=O)C1(C)NC(c2ccco2)C2C(=O)N(c3ccc(C)cc3)C(=O)C21 (stereo not drawn)	inactive
Cc1ccc(-c2ccc(/C=N\NC(=O)C3C(=O)NCC3c3ccccc3)o2)cc1Cl (stereo not drawn)	inactive
c1ccc(COc2ccc(OCCCn3cncn3)cc2)cc1	inconclusive: 0.112 µM [activator, full curve, poor fit]
COc1ccc(NC(=O)c2scc(S(=O)(=O)C(C)C)c2N)cc1	inconclusive: 6.31 µM [activator, single point]
CC(C)CCNC(=O)c1cc2c(s1)-c1ccccc1S(=O)(=O)C2	inactive

Compound	Potency
COc1ccccc1OC(C)C(=O)Nc1cccc(-c2nc3ccccc3s2)c1 (stereo not drawn)	inactive
COc1ccc(-n2nc(C(=O)Nc3ccccn3)c3c4ccccc4n(C)c3c2=O)cc1	inconclusive: 31.6 µM [activator, single point]
COC(=O)c1cccc(CSc2nc3ccccc3[nH]2)c1	inconclusive: 20.6 µM [inhibitor, single point]
CC1CCc2c(sc(Nc3nc4c(F)cccc4s3)c2C(N)=O)C1 (stereo not drawn)	inconclusive: 31.6 µM [inhibitor, single point]
COc1ccc(C(=O)NC2=NCCS2)cc1	inconclusive: 1.78 µM [activator, partial curve, poor fit]
CCCCOc1ccc(-c2cn3ccccc3n2)cc1[N+](=O)[O-]	inconclusive: 29.1 µM [inhibitor, single point]
COc1cccc(NC(=O)CNC(=O)c2ccccc2)c1	inactive
CCCCCn1c(NCc2ccc(OC)cc2)nc2ccccc21	inconclusive: 6.31 µM [inhibitor, single point]
CC1(C)OC(=O)C(=NNc2ccccc2)C(=O)O1	inconclusive: 0.631 µM [inhibitor, partial curve, poor fit]
COc1ccc(C(=O)NNC(=O)CN2CCC(n3nnc4cc(C(F)(F)F)ccc43)CC2)cc1	inactive
COC(=O)Cn1c(=O)c2cccn2c2ccc(F)cc21	inactive
COC1=C(OC)C2=C(CC1)CC1=[N+](CCC3=C1CC1=C(C3)OCO1)C2	inconclusive: 14.6 µM [inhibitor, partial curve, poor fit]
Nc1c(C(=O)NCc2ccco2)sc2nc3c(cc12)C(=O)CCC3	inconclusive: 29.1 µM [activator, single point]
COC(=O)c1ccc(N=NNc2ccccc2)cc1	inconclusive: 7.08 µM [inhibitor, full curve, poor fit]
Clc1ccc(OCc2nc(-c3ccccn3)no2)c(Br)c1	inconclusive: 9.2 µM [inhibitor, partial curve, poor fit]
COc1cccc(-c2csc(NC(=O)Oc3ccccc3)n2)c1	inactive
CCN(CC)C(=O)COc1coc(CN2CCN(c3ccccc3)CC2)cc1=O	inactive
CCN(c1ccccc1)S(=O)(=O)c1ccc(Cl)c(NC(=O)COC(=O)c2cccc(OC)c2O)c1	inactive
N#Cc1c(Nc2ccccc2)[n+]([O-])c2ccc(Cl)cc2[n+]1[O-]	inconclusive: 8.91 µM [inhibitor, partial curve, poor fit]
CCOC(=O)Cc1nnc(Nc2ccc(C(=O)NC)cc2)c2ccccc12	inactive
CCC(=O)Nc1nc(-c2ccc3c(c2)CC(C)N3S(C)(=O)=O)cs1 (stereo not drawn)	inconclusive: 18.3 µM [inhibitor, single point]
Cc1ccc(N(CC(=O)NCCc2ccc(Cl)cc2)S(=O)(=O)c2c(C)noc2C)cc1	inactive and inconclusive: 3.98 µM [inhibitor, single point]
Cc1ccc(S(=O)(=O)Oc2cccc(/C=N/Nc3ccc(C(=O)O)cc3)c2)cc1	inconclusive: 3.16 µM [activator, single point]
CC(=O)c1ccc2c(c1)CCN2	inconclusive: 35.5 µM [activator, single point]
